Source: patent US20260055137A1, “NOVEL ISOLATED PEPTIDES, PROTEIN HYDROLYSATE COMPRISING THE SAID ISOLATED PEPTIDES AND USE THEREOF” (BETAGRO PUBLIC COMPANY LIMITED, priority 2022, published 2026)
Some entries share one result that the patent states for a list of compounds. No end group written: not given here.

Test system: sensory panel
Experiment: Taste threshold in water (intrinsic taste), duo-trio tests
Format: in vivo
Conditions: highest concentration tested
Method: The threshold concentrations of 21 newly identified peptides were determined in water for the intrinsic taste and in model broth (pH 6.0 adjusted with 1% formic acid) for the taste modulating properties, respectively (Table 4). The peptides were dissolved, serially diluted 1:2, and presented to the panel using duo-trio-tests with ascending concentrations as reported in literatures. The geometric mean of the last and the second to last concentration was calculated and taken as the individual recognition threshold. The threshold value of the sensory panel was approximated by averaging the threshold values of the individuals in two independent sessions. [formula] • wherein • Cp: the threshold of a panelist, • C1: the first correctly evaluated concentration, • C0: the first misjudged concentration [formula] • wherein • Cs: the thresholds of total panelists, • Cp: the threshold of a panelist, • n: the number of panel members

Row | Substance | No intrinsic taste up to concentration (threshold in water) [mmol/L]
1 | Arg-Asn-Gly-Pro-Arg (RNGPR; Poultry) [SEQ ID NO: 17] | > 2
2 | EFDEKPAD [SEQ ID NO: 6] | > 2
3 | EGDSAAI [SEQ ID NO: 19] | > 2
